Experimental data taken from article PMC7819943, “Rice protein-binding microarrays: a tool to detect cis-acting elements near promoter regions in rice”.
Some of the results follow.

The chains behind the UniProt entries cited, without tags or fusion partners.
UniProt Q0JBA9, entry or part of it: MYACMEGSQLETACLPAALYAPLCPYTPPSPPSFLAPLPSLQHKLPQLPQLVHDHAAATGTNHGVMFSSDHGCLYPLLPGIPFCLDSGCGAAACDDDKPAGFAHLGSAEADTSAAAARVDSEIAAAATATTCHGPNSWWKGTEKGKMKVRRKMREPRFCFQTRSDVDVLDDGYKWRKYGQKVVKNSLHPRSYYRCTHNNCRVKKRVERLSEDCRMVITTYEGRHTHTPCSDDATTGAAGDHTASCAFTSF

target: OsWRKY34 (Oryza sativa, UniProt Q0JBA9 1-250); assay: protein-binding microarray (RPBM); PBS, 2% BSA, 51.3 ng/ul salmon testes DNA, 50 uM zinc acetate, 200 nM TF, 25 C, 1 h; high values mean tight binding; conditions: protein: recombinant; tags: N-terminal polyhistidine and DsRed monomer fusion (pET32a); label: CyDye5-dUTP incorporated in the synthesized complementary strand; 3' TTTTT single-stranded linker to array surface; dsDNA, one strand shown
Procedure, shortened: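 Binding signal is defined as the fluorescence intensity of each feature in arbitrary units, read on an Axon 4000B scanner. Transcription factors with N-terminal polyhistidine and DsRed fusions came from E. coli BL21-CodonPlus and were purified on Ni–NTA. They were incubated at 200 nM for 1 h at 25 °C on a custom Agilent array that had been made double-stranded with Cy5-dUTP, with 50 µM zinc acetate present, and the array was washed.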

Sequence	binding signal
CGTACAGACAATTTCCATATGCCAACACTGCGGCCCGACACGGAGTCACCTAGTGCAG	9040 fluorescence intensity (a.u.)
ATGTCACGTCCTTACATGCTTTGTTGCATGCTGCCATTATCGGAGTCACCTAGTGCAG	9120 fluorescence intensity (a.u.)
CTAGCTTTCACATCCTCGCTGGATTTTCTCGCGCATACCACGGAGTCACCTAGTGCAG	8970 fluorescence intensity (a.u.)
AGTAAGTGCCATCCTTCACCATTTCGTTCTAGCTCTGTCCCGGAGTCACCTAGTGCAG	9440 fluorescence intensity (a.u.)
TCTATTAGAACATATGTTTTTGGTTGATATTGTTAGATTCCGGAGTCACCTAGTGCAG	8080 fluorescence intensity (a.u.)
GTCATTTAAAACCAATCACATCGCCTCTTGTGCCATTATCCGGAGTCACCTAGTGCAG	9030 fluorescence intensity (a.u.)
ATTACTCCGTACGCAGCATTCTCCCTCGTGTCATTTTCGTCGGAGTCACCTAGTGCAG	8530 fluorescence intensity (a.u.)
ACAGGGCCGTAATCTAGCCCACTTGCACTATTGCAACTTGCGGAGTCACCTAGTGCAG	8910 fluorescence intensity (a.u.)
ATGACTCACCTCGTTTTGTGTATCTTCCCAATCTCCTCTACGGAGTCACCTAGTGCAG	9960 fluorescence intensity (a.u.)
CCACCCGCATCCGCGCGCGCTGCTCCGCCTGCCGCCGGCCCGGAGTCACCTAGTGCAG	9470 fluorescence intensity (a.u.)
CGCGTCGACGGCGGGGATGGGGACGGGTTGGTTGATCTTTCGGAGTCACCTAGTGCAG	10900 fluorescence intensity (a.u.)
TTCCCCATGAGCAAGCTCCTCCACTGCGCCACCGTCTCCTCGGAGTCACCTAGTGCAG	9080 fluorescence intensity (a.u.)
GGCCGGCGGGTGGCCGGGTGGGGAGGAGGTCGGCAGGGCGCGGAGTCACCTAGTGCAG	9780 fluorescence intensity (a.u.)
GGTGAAGCGAGGTTCTGGACAAGGGGATGTGTGTGGGAGTCGGAGTCACCTAGTGCAG	8430 fluorescence intensity (a.u.)
TAATCCTGTGTCCGTCATTGAGCATGTGTGTATGAATCAACGGAGTCACCTAGTGCAG	9290 fluorescence intensity (a.u.)
TCTTCCGCCGCACTTTTAGATCATCACACATCACCGAGATCGGAGTCACCTAGTGCAG	8070 fluorescence intensity (a.u.)
CCTCCTATCGAATGCCGCCTCTTTTCTGCCCGTCCACTGCCGGAGTCACCTAGTGCAG	9380 fluorescence intensity (a.u.)
GCTTCTAGTACCTGTGAAATTTACTTTGGTTCCATTTTTTCGGAGTCACCTAGTGCAG	10900 fluorescence intensity (a.u.)
ATTCATTGTGTGCCATCTGGTGGTGTTGTGTATAATATTACGGAGTCACCTAGTGCAG	11400 fluorescence intensity (a.u.)
GTAATGGCATATTTGCAATTATCCCTTTGTTTATTTATTTCGGAGTCACCTAGTGCAG	8510 fluorescence intensity (a.u.)
CCTCGCTGCCGCCTCAGCTCCTCCGCTTACTCGTATTCCACGGAGTCACCTAGTGCAG	11400 fluorescence intensity (a.u.)

An excerpt of these results, comma-delimited.
Sequence,binding signal
ATGTCACGTCCTTACATGCTTTGTTGCATGCTGCCATTATCGGAGTCACCTAGTGCAG,9120 fluorescence intensity (a.u.)
CTAGCTTTCACATCCTCGCTGGATTTTCTCGCGCATACCACGGAGTCACCTAGTGCAG,8970 fluorescence intensity (a.u.)
ATTACTCCGTACGCAGCATTCTCCCTCGTGTCATTTTCGTCGGAGTCACCTAGTGCAG,8530 fluorescence intensity (a.u.)
CCTCCTATCGAATGCCGCCTCTTTTCTGCCCGTCCACTGCCGGAGTCACCTAGTGCAG,9380 fluorescence intensity (a.u.)

Further results:

Sequence	binding signal
CACTCTCTCGGTCTCTCCATCCATCCACCTCTCTCGATCGCGGAGTCACCTAGTGCAG	8050 fluorescence intensity (a.u.)
GCGCTACTTCGCTCGACCACCCGCCCGCCTTCCACTGCCACGGAGTCACCTAGTGCAG	8550 fluorescence intensity (a.u.)
GCTGCCCCTTGTACTTACTTCTATCATCTTTCTTCCCACACGGAGTCACCTAGTGCAG	8880 fluorescence intensity (a.u.)
TTCACACACGAGTAATTGCAGCCTTGCTTTCTCGAAAAAACGGAGTCACCTAGTGCAG	17100 fluorescence intensity (a.u.)
TGCCATTTGAGTGCATTCATGTTCTTACTGTATCGCCTGACGGAGTCACCTAGTGCAG	8220 fluorescence intensity (a.u.)
GCTAGGGTTTTTGGGTTCACTTTGAGGCTGTTTGGTTGGTCGGAGTCACCTAGTGCAG	15100 fluorescence intensity (a.u.)
GCTGCACAGCTAGTCAACACAAGCTAGTCAAACCGTTGACCGGAGTCACCTAGTGCAG	19200 fluorescence intensity (a.u.)
ACACCGCACCGCCGCAATCGTTGGCACAAGCTACAACCCTCGGAGTCACCTAGTGCAG	8540 fluorescence intensity (a.u.)
TTTCAGGGCTATGGATGCCCTGGACTTTCTGGCCCAGCTTCGGAGTCACCTAGTGCAG	8980 fluorescence intensity (a.u.)
TCCTCTTCCTCCTCCGTCTCCGCTAGGGTTTCCGCGCCGCCGGAGTCACCTAGTGCAG	8170 fluorescence intensity (a.u.)
GACGTTCTCTGCTTCCACCTCTAGTACGTTTCTACTCTACCGGAGTCACCTAGTGCAG	11800 fluorescence intensity (a.u.)
GGGTTTGGTCGTCAGTCTGAGGTTGGCAGAGTTTTTAGATCGGAGTCACCTAGTGCAG	13100 fluorescence intensity (a.u.)
AACCATTCCTGTGTTTTTCCTGTGTTTTGCAATCCTCTGTCGGAGTCACCTAGTGCAG	12100 fluorescence intensity (a.u.)
GGTGGGTGGGCATTTGCAACAAAATAACTTACGGGGTGGACGGAGTCACCTAGTGCAG	17000 fluorescence intensity (a.u.)
ATGTCTAGCAAGGCTATGGCTGCATGAAATTGTTAGGAGTCGGAGTCACCTAGTGCAG	11900 fluorescence intensity (a.u.)
GTCAAGCATTCGCCCGTGTTTGCTCGCTCCGCTCCGTCACCGGAGTCACCTAGTGCAG	10000 fluorescence intensity (a.u.)
TGCGTCCCATTTTTCCGTTCGCTCCGCCGCATCGCTAAACCGGAGTCACCTAGTGCAG	9410 fluorescence intensity (a.u.)
TGTGTCGATGTTGTTTCTTTGACTTGTGACTCTCATTGGACGGAGTCACCTAGTGCAG	10700 fluorescence intensity (a.u.)
ATTTTTACTCTAACAACAGCTCATCTACTACCCTACTACTCGGAGTCACCTAGTGCAG	8660 fluorescence intensity (a.u.)
TGCAGCATATGCTTGACCTTTATGTGTTTTATATAATTTTCGGAGTCACCTAGTGCAG	8260 fluorescence intensity (a.u.)
TCTCCCGTCTTTACAATCCACCGCGTACTACCGCCTCCACCGGAGTCACCTAGTGCAG	8160 fluorescence intensity (a.u.)

Sequence	binding signal
GCTTCTCTCGCGCGCGCACCAACCGCCGCCCGTGCCCGGTCGGAGTCACCTAGTGCAG	8890 fluorescence intensity (a.u.)
CATATTATTTTCTGTTTGTAAATACACTGTTGGACTTATTCGGAGTCACCTAGTGCAG	8070 fluorescence intensity (a.u.)
GCACCCAGCTGCAACATGGATCACCGAACACATCGATCCACGGAGTCACCTAGTGCAG	10300 fluorescence intensity (a.u.)
AACCTAGGGGCAGTTCCCATTTCTCCCTCATCGTCATCTTCGGAGTCACCTAGTGCAG	11300 fluorescence intensity (a.u.)
GTGGGCAGCGGCGGCGGCCGGTGGGAGGAGGGGAAGCATGCGGAGTCACCTAGTGCAG	8380 fluorescence intensity (a.u.)
CAAAATCTTGCACACCACACTTGATCATCACTTTTTTTTTCGGAGTCACCTAGTGCAG	10800 fluorescence intensity (a.u.)
TCTTTGATTAACCACTTCACCAGATAACTCATCCCACTTTCGGAGTCACCTAGTGCAG	8530 fluorescence intensity (a.u.)
CCATTCCATGGCTATCAGGAGAGGGTTCATGGGGAGGGTACGGAGTCACCTAGTGCAG	8940 fluorescence intensity (a.u.)
GCCCTTTTCTTGAGCACCCACATCGGCCTCAACACGGATCCGGAGTCACCTAGTGCAG	8400 fluorescence intensity (a.u.)
AGCCCGTTTTGTTTGTTTCTTCCGGCCTCCGTGTGGTACACGGAGTCACCTAGTGCAG	12700 fluorescence intensity (a.u.)
GCCGCCGTTGCAGTGCCGCTGCTCAACCCGTTCACCATCGCGGAGTCACCTAGTGCAG	10300 fluorescence intensity (a.u.)
CCTTAGCGGTATCCCTATTTATCTATTTATACTGTGTTTACGGAGTCACCTAGTGCAG	9860 fluorescence intensity (a.u.)
CCGCTAAGACTTGCCTACTCCACTACCGCTTCTACTGCTTCGGAGTCACCTAGTGCAG	10400 fluorescence intensity (a.u.)
TTCAATCATGTTCCTTAGTTCACTAATGTTCAACTGCCAACGGAGTCACCTAGTGCAG	8270 fluorescence intensity (a.u.)
TAGATGAAATGGGTTGGGTTGATTTGGGTTGAAATATGATCGGAGTCACCTAGTGCAG	21800 fluorescence intensity (a.u.)
TTCTTATTCTGTCGGTTGTGTGGTGGCAGGGCAGTTAATTCGGAGTCACCTAGTGCAG	8630 fluorescence intensity (a.u.)
ACTTCATTCTCTCTTTTTTTTTTACACGTAAGACGGTAAACGGAGTCACCTAGTGCAG	9220 fluorescence intensity (a.u.)
AGATTATTTACCGTGCGGGGTTATATATAGGGGAGGTTTTCGGAGTCACCTAGTGCAG	11300 fluorescence intensity (a.u.)
CAATTTCCACCCTTCCTTTTTCTCCGAAGCTAACGCGGCGCGGAGTCACCTAGTGCAG	8620 fluorescence intensity (a.u.)
GAGAAGTTGATATGCATTGGTTTTTGGAGTTGGCGGGTTTCGGAGTCACCTAGTGCAG	11500 fluorescence intensity (a.u.)
CAACCTGTAATCATATCGTCGTGCTGTTTGTGATGTTTGTCGGAGTCACCTAGTGCAG	11000 fluorescence intensity (a.u.)

Reprinted at random: 2 records from the list.
Sequence	binding signal
GCTGCCCCTTGTACTTACTTCTATCATCTTTCTTCCCACACGGAGTCACCTAGTGCAG	8880 fluorescence intensity (a.u.)
TCTATTAGAACATATGTTTTTGGTTGATATTGTTAGATTCCGGAGTCACCTAGTGCAG	8080 fluorescence intensity (a.u.)

The listing continues:

Sequence	binding signal
TGGAGCTAGTAGTTGGCTATACTATTGAACTTGCTCTTAACGGAGTCACCTAGTGCAG	9040 fluorescence intensity (a.u.)
GCCGAGGAAACCCTAGCGCCGCATCCGCCTCCTATATATTCGGAGTCACCTAGTGCAG	9050 fluorescence intensity (a.u.)
CCATATTATTTGTCGTTTTGAGTTTTTGTTTGTAATATATCGGAGTCACCTAGTGCAG	9040 fluorescence intensity (a.u.)
ATTTAGTCTTGTGTCATCAAATCCATTTAGTGTCTTTAAACGGAGTCACCTAGTGCAG	8020 fluorescence intensity (a.u.)
GCTAACTCGTCACGTCATTAGAAACCGTACACAATATTGTCGGAGTCACCTAGTGCAG	9020 fluorescence intensity (a.u.)
TGTGGTCAATAGTAAGTAGTTTGGCAACATCCCACCAGTCCGGAGTCACCTAGTGCAG	8700 fluorescence intensity (a.u.)
CGGAAGCATGGCACAATCCGGCACACCAACTCGTCGATTCCGGAGTCACCTAGTGCAG	8420 fluorescence intensity (a.u.)
GTGTGTGATGATGCATGCATGCCTATCTTGATTGGAAAACCGGAGTCACCTAGTGCAG	8210 fluorescence intensity (a.u.)
GGGGCAGTTTTTGGATGGTTTGGCTCGCGAGCTTAACGAGCGGAGTCACCTAGTGCAG	8130 fluorescence intensity (a.u.)
TCCTTTTCTTATCATCTACACAGTGTTACCAGTCTACTAACGGAGTCACCTAGTGCAG	9960 fluorescence intensity (a.u.)
ACCTGAACTTGTCCTGCACTCCTGCTGCTCCACCATCGCTCGGAGTCACCTAGTGCAG	10100 fluorescence intensity (a.u.)
GTGCTCACCTTGTCAGTCTTCTTCCTGAGTTTCCTGAACCCGGAGTCACCTAGTGCAG	10000 fluorescence intensity (a.u.)
CTTGGAACTGGCAGCCGCTGGCCTTTGTGTTCTTGATGATCGGAGTCACCTAGTGCAG	8460 fluorescence intensity (a.u.)
ACACAGTATACACTAATTCAAACAATATTTCACTCATGATCGGAGTCACCTAGTGCAG	8410 fluorescence intensity (a.u.)
CATCATATGCAAATGCAACACATGCAGACCGACAAGTCAACGGAGTCACCTAGTGCAG	8020 fluorescence intensity (a.u.)
TATTGACATTTTTTTAAGTACTCCACGTGTTCGATTTGTACGGAGTCACCTAGTGCAG	8260 fluorescence intensity (a.u.)
TATGGATCTCATCTCTCCACACTTCTGCCCCACCAACAGCCGGAGTCACCTAGTGCAG	10300 fluorescence intensity (a.u.)
TCTCGGTTTTTTCGGTCTCGGTCTCGGTCTAACCGAATTCCGGAGTCACCTAGTGCAG	9120 fluorescence intensity (a.u.)
AGTCTTTACTTATAAGTGCTTATGATTTTTTTTTTGTGAACGGAGTCACCTAGTGCAG	8290 fluorescence intensity (a.u.)
CATGCCGTGCTCGCGCTATTAATGTGGTGGTGGTGGTGGTCGGAGTCACCTAGTGCAG	10800 fluorescence intensity (a.u.)
CAGAGCTCTTCCTGCTGTACCTACCAAGCTCTTACTTTGACGGAGTCACCTAGTGCAG	8060 fluorescence intensity (a.u.)
